Assay results as given in article PMC9260213.
Positions count from the first letter of the chain named. No constants are given. Whether binding was seen depends on the method and setting. For part of these data: Binding seen in cells or lysates may run through a third protein. Some entries that bind do so weakly or less than the wild type. For part of these data: Tags and fused reporters may be left off the sequences shown. Values belong to the binder of their own block, whether it stands above or below them.

How the values were obtained:
[1] = target: T1, human ELP1, endogenous in fibroblasts (human (endogenous in fibroblasts)) (UniProt O95163); test: co-IP; whole cell lysates of control and patient-derived fibroblasts (0.5% Triton X-100, 50 mM Tris/HCl pH 7.5, 1 mM EDTA, 150 mM NaCl), ELP1 antibody and protein A magnetic beads; blots for ELP1, ELP3, ELP4, ELP5, α-tubulin
T1 sequence: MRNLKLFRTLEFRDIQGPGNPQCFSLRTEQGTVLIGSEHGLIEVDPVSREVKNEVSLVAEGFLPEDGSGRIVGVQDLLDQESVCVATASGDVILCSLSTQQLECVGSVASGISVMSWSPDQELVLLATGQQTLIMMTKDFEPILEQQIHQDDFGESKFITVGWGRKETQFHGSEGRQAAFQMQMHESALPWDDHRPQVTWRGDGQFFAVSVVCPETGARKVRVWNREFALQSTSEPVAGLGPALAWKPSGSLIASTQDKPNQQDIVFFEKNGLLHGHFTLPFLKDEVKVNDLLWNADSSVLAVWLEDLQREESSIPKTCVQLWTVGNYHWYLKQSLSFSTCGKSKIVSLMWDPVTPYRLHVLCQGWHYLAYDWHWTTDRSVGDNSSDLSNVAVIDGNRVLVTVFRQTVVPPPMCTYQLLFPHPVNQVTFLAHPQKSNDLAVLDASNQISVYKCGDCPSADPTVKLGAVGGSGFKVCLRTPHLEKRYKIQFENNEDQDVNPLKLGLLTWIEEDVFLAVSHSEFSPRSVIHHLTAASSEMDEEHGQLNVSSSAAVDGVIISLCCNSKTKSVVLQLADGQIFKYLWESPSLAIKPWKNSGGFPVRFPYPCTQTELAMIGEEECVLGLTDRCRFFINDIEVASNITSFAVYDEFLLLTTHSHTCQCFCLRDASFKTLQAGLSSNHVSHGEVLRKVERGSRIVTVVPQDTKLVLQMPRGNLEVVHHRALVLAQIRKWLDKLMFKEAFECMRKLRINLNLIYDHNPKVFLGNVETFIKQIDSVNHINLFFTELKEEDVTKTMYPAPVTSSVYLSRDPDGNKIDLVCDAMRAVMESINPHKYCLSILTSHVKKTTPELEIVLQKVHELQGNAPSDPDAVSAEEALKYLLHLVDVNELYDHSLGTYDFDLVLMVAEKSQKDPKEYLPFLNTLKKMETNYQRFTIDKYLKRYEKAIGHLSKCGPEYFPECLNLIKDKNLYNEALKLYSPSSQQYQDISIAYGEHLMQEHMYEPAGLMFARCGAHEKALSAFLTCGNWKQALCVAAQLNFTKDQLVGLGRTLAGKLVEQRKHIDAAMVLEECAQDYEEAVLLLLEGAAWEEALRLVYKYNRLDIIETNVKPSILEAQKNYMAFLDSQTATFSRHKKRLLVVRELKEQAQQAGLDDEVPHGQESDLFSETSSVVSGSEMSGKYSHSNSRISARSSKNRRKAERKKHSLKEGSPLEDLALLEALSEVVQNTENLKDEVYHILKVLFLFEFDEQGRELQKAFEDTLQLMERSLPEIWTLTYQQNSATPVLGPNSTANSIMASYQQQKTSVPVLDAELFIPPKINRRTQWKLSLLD

[2] = target: T2, murine Elp6 (subunit of mElp456) (Mus musculus) (UniProt Q8BK75); test: SEC; three subunits co-expressed and purified as one complex (human, murine: Hi-5 cells, IgG agarose via Protein A on Elp6, TEV cleavage); gel filtration on Superose 6 Increase 10/300 GL by the legend (S200 Increase 10/300 GL by the methods), 20 mM HEPES pH 7.5, 100 mM NaCl, 2 mM MgCl2, 5 mM DTT; eluted at ~220 kDa; production of the yeast complex not told; both purified
T2 sequence: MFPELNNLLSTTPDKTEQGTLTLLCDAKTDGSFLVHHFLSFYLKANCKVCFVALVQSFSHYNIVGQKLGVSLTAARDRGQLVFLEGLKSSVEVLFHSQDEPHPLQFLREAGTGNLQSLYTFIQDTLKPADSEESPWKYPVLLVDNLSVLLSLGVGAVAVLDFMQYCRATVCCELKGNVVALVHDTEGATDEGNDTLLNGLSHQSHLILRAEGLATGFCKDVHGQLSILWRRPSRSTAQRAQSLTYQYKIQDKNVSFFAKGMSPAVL

[3] = target: T3, murine Elp6 L126Q (Mus musculus) (UniProt Q8BK75); test: co-purification; mElp456 variants co-expressed in Hi-5 cells, captured from lysate on IgG agarose via Protein A on Elp6, TEV cleavage, gel filtration
T3 sequence: T2 sequence with L126Q

[4] = target: T4, murine Elp6 L118W (Mus musculus) (UniProt Q8BK75); test: as above
T4 sequence: T2 sequence with L118W

[5] = target: T5, murine Elp3 (subunit of mElp123), Twin-Strep-tagged (murine) (UniProt Q9CZX0); test: pull-down; mElp123 co-expressed in Sf9-1 and purified as one complex via Twin-Strep on Elp3, held on Dynabeads MyOne Streptavidin C1 via Elp3, eluted with d-desthiobiotin; SDS-PAGE, Coomassie; both purified
T5 sequence: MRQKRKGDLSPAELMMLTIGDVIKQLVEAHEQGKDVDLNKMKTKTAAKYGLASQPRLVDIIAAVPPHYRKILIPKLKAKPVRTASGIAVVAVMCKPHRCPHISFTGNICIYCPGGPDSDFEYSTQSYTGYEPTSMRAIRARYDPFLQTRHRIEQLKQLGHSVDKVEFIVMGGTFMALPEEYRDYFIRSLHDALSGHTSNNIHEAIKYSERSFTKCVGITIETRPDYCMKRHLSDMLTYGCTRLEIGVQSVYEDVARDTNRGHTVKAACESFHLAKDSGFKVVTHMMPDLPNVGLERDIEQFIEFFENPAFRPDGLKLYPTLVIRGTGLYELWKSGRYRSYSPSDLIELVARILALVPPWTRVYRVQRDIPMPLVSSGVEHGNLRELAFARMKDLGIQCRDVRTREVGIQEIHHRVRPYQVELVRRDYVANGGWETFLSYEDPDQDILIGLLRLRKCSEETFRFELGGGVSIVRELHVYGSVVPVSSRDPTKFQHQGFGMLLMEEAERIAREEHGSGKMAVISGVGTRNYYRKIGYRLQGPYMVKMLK

- binding [1]: binds
B1: human ELP4, endogenous in fibroblasts (wild type) (protein, UniProt Q96EB1 1-424)
chain: MAAVATCGSVAASTGSAVATASKSNVTSFQRRGPRASVTNDSGPRLVSIAGTRPSVRNGQLLVSTGLPALDQLLGGGLAVGTVLLIEEDKYNIYSPLLFKYFLAEGIVNGHTLLVASAKEDPANILQELPAPLLDDKCKKEFDEDVYNHKTPESNIKMKIAWRYQLLPKMEIGPVSSSRFGHYYDASKRMPQELIEASNWHGFFLPEKISSTLKVEPCSLTPGYTKLLQFIQNIIYEEGFDGSNPQKKQRNILRIGIQNLGSPLWGDDICCAENGGNSHSLTKFLYVLRGLLRTSLSACIITMPTHLIQNKAIIARVTTLSDVVVGLESFIGSERETNPLYKDYHGLIHIRQIPRLNNLICDESDVKDLAFKLKRKLFTIERLHLPPDLSDTVSRSSKMDLAESAKRLGPGCGMMAGGKKHLDF

- binding [2]: binds
- binding [3]: binds
- binding [4]: binds
B2: murine Elp5 (subunit of mElp456) (protein, UniProt Q99L85 1-300)
chain: MLDSLLAIGGLVLLRDSVEWEGRSLLKALIKKSALRGEQVHVLGCEVSEEEFREGFDSDVNSRLVYHDLFRDPLNWSKPGEAVPEGPLKALRSMCKRTDHGSVTIALDSLSWLLCHIPCVTLCQALHALSQQNGDPGDNSLVEQVRVLGLLHEELHGPGSMGALNTLAHTEVTLSGKVDQTSASILCRRPQQRATYQTWWFSVLPDFSLTLHEGLPLRSELHPDHHTTQVDPTAHLTFNLHLSKKEREARDSLTLPFQFSSEKQKALLHPVPSRTTGHIFYEPDAFDDVDPEDPDDDLDI

- binding [5]: binds
B3: murine Elp2 (subunit of mElp123) (protein, UniProt Q91WG4 1-831)
chain: MVSSVLEVSHVFCCPNRVRGALSWNTGPGGLLAFGTSCSVVLYDPQKKVVITNLNGHTARVNCLQWIRTEDGSPSNELVSGGSDNRVIHWELENNQVLKSVRLQGHEGPVCAVHAIYQSGPSEGEQHALIASAASDSTVRIWSKKGSEVKYLQTLSFRDGFVLSVCLAILPGTNVPVLACGDDDCRIHLYIQQDDQFQKALSLCGHEDWIRGVEWATFGRDLFLASCSQDCLIRIWRLYMKPASFETKDGSLRLKENTFTIKDGGVRTTVAVTLETVLAGHENWVNAVHWQPSFYKDGVLQQPVRLLSASMDKTMILWAPDEESGVWLEQVRVGEVGGNTLGFYDCQFGENGTMIIAHAFHGALHLWKQSTVNPRQWAPEIVISGHFDGVQDLMWDPEGEFIITTSTDQTTRLFAPWKKKDQKDRSQVTWHEIARPQIHGYNIKCLAMIDRFQFVSGADEKVLRVFSAPRNFVENFSVISRQSLSHMLCDDQDLPEGATVPALGLSNKALFQGDIASQPFEEDELISPAFGSPQVTFQPAVLNEPPTEDHLLQNTLWPEIQKLYGHGYEIVCVACNNSKTLLASACKASQKEHAAIILWSTASWKQVQSLAFHTLTVTQMTFSPDDKFLLAVSRDRTWSLWKRQDATSSEFDPFFSLFAFTNKITSVHSRIIWSCDWSPDNKYFFTGSRDKKVVVWGECKSSHNPMEHPIRPCSSILDVGSSVTAVSVCPVLNPAQRYIVAIGLESGKICIYSWNKTNQEINDWTSCVETNPSQSHSLGIRRLCWKSCSDDDDDDDDDDTEQSEEGPEWLHFASCGEDHTVKIYRVNRRAL

- binding [5]: binds
B4: murine Elp1 (subunit of mElp123) (protein, UniProt Q7TT37 1-1333)
chain: MRNLKLHRTLEFRDIQAPGKPQCFCLRAEQGTVLIGSERGLTEVDPVRREVKTEISLVAEGFLPEDGSGCIVGIQDLLDQESVCVATASGDVIVCNLSTQQLECVGSVASGISVMSWSPDQELLLLATAQQTLIMMTKDFEVIAEEQIHQDDFGEGKFVTVGWGSKQTQFHGSEGRPTAFPVQLPENALPWDDRRPHITWRGDGQYFAVSVVCRQTEARKIRVWNREFALQSTSESVPGLGPALAWKPSGSLIASTQDKPNQQDVVFFEKNGLLHGHFTLPFLKDEVKVNDLLWNADSSVLAIWLEDLPKEDSSTLKSYVQLWTVGNYHWYLKQSLPFSTTGKNQIVSLLWDPVTPCRLHVLCTGWRYLCCDWHWTTDRSSGNSANDLANVAVIDGNRVLVTVFRQTVVPPPMCTYRLLIPHPVNQVIFSAHLGNDLAVLDASNQISVYKCGDKPNMDSTVKLGAVGGNGFKVPLTTPHLEKRYSIQFGNNEEEEEEEVNALQLSFLTWVEDDTFLAISYSHSSSQSIIHHLTVTHSEVDEEQGQLDVSSSVTVDGVVIGLCCCSKTKSLAVQLADGQVLKYLWESPSLAVEPWKNSEGIPVRFVHPCTQMEVATIGGEECVLGLTDRCRFFINDTEVASNITSFAVCDDFLLVTTHSHTCQVFSLSGASLKMLQAALSGSHEASGEILRKVERGSRIVTVVPQDTKLILQMPRGNLEVVHHRALVLAQIRKWLDKLMFKEAFECMRKLRINLNLIHDHNPKVFLENVETFVKQIDSVNHINLFFTELREEDVTKTMYPPPITKSVQVSTHPDGKKLDLICDAMRAAMEAINPRKFCLSILTSHVKKTTPELEIVLQKVQELQGNLPFDPESVSVEEALKYLLLLVDVNELFNHSLGTYDFNLVLMVAEKSQKDPKEYLPFLNTLKKMETNYQRFTIDKYLKRYEKALGHLSKCGPEYFTECLNLIKDKNLYKEALKLYRPDSPQYQAVSMAYGEHLMQEHLYEPAGLVFARCGAQEKALEAFLACGSWQQALCVAAQLQMSKDKVAGLARTLAGKLVEQRKHSEAATVLEQYAQDYEEAVLLLLEGSAWEEALRLVYKYDRVDIIETSVKPSILEAQKNYMDFLDSETATFIRHKNRLQVVRALRRQAPQVHVDHEVAHGPESDLFSETSSIMSGSEMSGRYSHSNSRISARSSKNRRKAERKKHSLKEGSPLEGLALLEALSEVVQSVEKLKDEVRAILKVLFLFEFEEQAKELQRAFESTLQLMERAVPEIWTPAGQQSSTTPVLGPSSTANSITASYQQQKTCVPALDAGVYMPPKMDPRSQWKLSLLE
